These results are taken from patent US20140051120A1.

Changes are numbered by the printed parent chain. These are yes or no findings as the source states them, for the method shown. Some entries that bind do so weakly or less than the wild type. For some of these results: Sequences can lack the tags named with a protein.

The labels stand for the following.
B1: 18F7.v1 IgG (18F7-graft) (antibody, V domains shown)
VH: EVQLVESGGGLVQPGGSLRLSCAASGYTFIDYYMNWVRQAPGKGLEWVGDINLDNGGTHYNQKFKGRFTISRDNSKNTLYLQMNSLRAEDTAVYYCAREGVYHDYDDYAMDYWGQGTLVTVSS
VL: DIQMTQSPSSLSASVGDRVTITCRTSQSLVHINGITYLHWYQQKPGKAPKLLIYRVSNRFSGVPSRFSGSGSGTDFTLTISSLQPEDFATYYCSQSTHVPLTFGQGTKVEIKR
B2: 18F7.v5 IgG (antibody, V domains shown)
VH: B1 VH with N74K, L79A
VL: DIQMTQSPSSLSASVGDRVTITCRTSQSLVHINGITYLHWYQQKPGKAPKLLIYRVSNRGSGVPSRFSGSGSGTDFTLTISSLQPEDFATYYCSQSTHVPLTFGQGTKVEIK
B3: 18F7.v3 IgG (antibody, name in Kabat numbering, V domains shown)
VH: B1 VH with N74K, L79A
VL: B1 VL
B4: 18F7.v10 IgG (antibody, V domains shown)
VH: B1 VH with N74K, L79A, D104P
VL: B2 VL with G60F
B5: 18F7.v6 IgG (antibody, V domains shown)
VH: B1 VH with N74K, L79A
VL: B1 VL with S94G
B6: 18F7.v9 IgG (antibody, V domains shown)
VH: B1 VH with Y32K, N74K, L79A
VL: B2 VL with G60F
B7: 18F7.v4 IgG (antibody, name in Kabat numbering, V domains shown)
VH: B1 VH with N74K, L79V
VL: B1 VL
B8: 18F7.v7 IgG (antibody, V domains shown)
VH: B1 VH with N74K, L79A
VL: B2 VL with G60F, S94A
B9: 18F7.v2 IgG (antibody, name in Kabat numbering, V domains shown)
VH: B1 VH with N74K
VL: B1 VL
B10: 18F7.v8 IgG (antibody, V domains shown)
VH: B1 VH with N74K, L79A
VL: B2 VL with G60F, S94V
B11: phage displaying 4F11.v1 Fab (Fab, V domains shown)
VH: EVQLVESGGGLVQPGGSLRLSCAASGHTFTTYGMSWVRQAPGKGLEWVGWINTHSGVPTYADDFKGRFTISRDNSKNTLYLQMNSLRAEDTAVYYCARLGSSAVDYWGQGTLVTVSS
VL: DIQMTQSPSSLSASVGDRVTITCKASQSVDYDGDSYMSWYQQKPGKAPKLLIYGASNLESGVPSRFSGSGSGTDFTLTISSLQPEDFATYYCQQNNEDPYTFGQGTKVEIKR
B12: phage displaying 18F7-graft Fab (Fab, V domains shown)
VH: B1 VH
VL: B1 VL

The target in the first test is T1, mouse EGFL7 (mEGFL7-CB-His) (mouse) (UniProt Q9QXT5).
T1 sequence: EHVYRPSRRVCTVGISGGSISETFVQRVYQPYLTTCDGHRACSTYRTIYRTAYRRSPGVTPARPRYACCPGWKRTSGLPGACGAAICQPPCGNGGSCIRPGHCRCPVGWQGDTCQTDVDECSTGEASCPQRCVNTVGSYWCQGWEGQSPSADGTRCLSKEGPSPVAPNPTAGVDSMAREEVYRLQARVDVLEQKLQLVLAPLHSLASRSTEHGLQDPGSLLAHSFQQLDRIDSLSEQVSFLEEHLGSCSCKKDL
Description: SPR (Biacore), IgG over immobilized mEGFL7. For orientation: Surface plasmon resonance follows binding to a sensor surface in real time, without labels.
For the molecule B1, the binding result is “binds”.
With B2, the binding result is “binds”.
On to B3, for which the binding result is reported as “binds”.
Consider B4, for which the binding entry is on record as “binds”.
Consider B5, for which the binding result is listed as “binds”.
Regarding B6, the binding entry is given as “binds”.
Take B7: the binding result was “binds”.
As to B8, the binding result is “binds”.
Regarding B9, the binding result was “binds”.
On to B10, for which the binding entry is “binds”.

For another test, the target named is T1, mouse EGFL7 (mEGFL7-CB-His) (mouse). Description: SPR (Biacore), IgG over immobilized antigen.
B1: the binding result is on record as “binds”.
B2: the binding result is reported as “binds”.
On to B3, for which the binding entry is listed as “binds”.
B4: the binding entry is “binds”.
As to B5, the binding entry is on record as “binds”.
Consider B6, for which the binding result is “binds”.
Turning to B7, the binding result was “binds”.
On the same count and under the same terms, to B8 belongs “binds”.
B9: the binding entry was “binds”.
For B10, the binding entry is “binds”.

The next test deals with T2, full length human EGFL7 (expressed in CHO cells) (human) (UniProt Q9UHF1).
T2 sequence: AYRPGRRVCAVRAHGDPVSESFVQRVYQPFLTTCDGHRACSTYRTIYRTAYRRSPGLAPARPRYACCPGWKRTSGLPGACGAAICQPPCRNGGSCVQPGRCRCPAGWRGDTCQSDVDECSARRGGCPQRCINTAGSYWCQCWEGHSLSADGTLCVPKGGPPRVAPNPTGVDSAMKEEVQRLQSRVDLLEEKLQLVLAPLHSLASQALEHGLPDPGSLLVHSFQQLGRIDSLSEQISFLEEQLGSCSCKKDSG
As to the kind of experiment: phage binding to antigen immobilized on microtiter plate.
For B11, the binding result is given as “binds”.
In the case of B12, the binding entry is “binds”.
